These are yes or no findings as the source states them, for the method shown. In cells and extracts the contact can be indirect. Binding calls can cover weak binding; strength is not graded here.

Sequences and labels used below:
B1: MATR3 (protein, UniProt P43243 1-847)
chain: MSKSFQQSSLSRDSQGHGRDLSAAGIGLLAAATQSLSMPASLGRMNQGTARLASLMNLGMSSSLNQQGAHSALSSASTSSHNLQSIFNIGSRGPLPLSSQHRGDADQASNILASFGLSARDLDELSRYPEDKITPENLPQILLQLKRRRTEEGPTLSYGRDGRSATREPPYRVPRDDWEEKRHFRRDSFDDRGPSLNPVLDYDHGSRSQESGYYDRMDYEDDRLRDGERCRDDSFFGETSHNYHKFDSEYERMGRGPGPLQERSLFEKKRGAPPSSNIEDFHGLLPKGYPHLCSICDLPVHSNKEWSQHINGASHSRRCQLLLEIYPEWNPDNDTGHTMGDPFMLQQSTNPAPGILGPPPPSFHLGGPAVGPRGNLGAGNGNLQGPRHMQKGRVETSRVVHIMDFQRGKNLRYQLLQLVEPFGVISNHLILNKINEAFIEMATTEDAQAAVDYYTTTPALVFGKPVRVHLSQKYKRIKKPEGKPDQKFDQKQELGRVIHLSNLPHSGYSDSAVLKLAEPYGKIKNYILMRMKSQAFIEMETREDAMAMVDHCLKKALWFQGRCVKVDLSEKYKKLVLRIPNRGIDLLKKDKSRKRSYSPDGKESPSDKKSKTDGSQKTESSTEGKEQEEKSGEDGEKDTKDDQTEQEPNMLLESEDELLVDEEEAAALLESGSSVGDETDLANLGDVASDGKKEPSDKAVKKDGSASAAAKKKLKKVDKIEELDQENEAALENGIKNEENTEPGAESSENADDPNKDTSENADGQSDENKDDYTIPDEYRIGPYQPNVPVGIDYVIPKTGFYCKLCSLFYTNEEVAKNTHCSSLPHYQKLKKFLNKLAEERRQKKET
B2: RBFOX2 (protein, UniProt O43251 1-390)
chain: MQNEPLTPGYHGFPARDSQGNQEPTTTPDAMVQPFTTIPFPPPPQNGIPTEYGVPHTQDYAGQTGEHNLTLYGSTQAHGEQSSNSPSTQNGSLTTEGGAQTDGQQSQTQSSENSESKSTPKRLHVSNIPFRFRDPDLRQMFGQFGKILDVEIIFNERGSKGFGFVTFENSADADRAREKLHGTVVEGRKIEVNNATARVMTNKKMVTPYANGWKLSPVVGAVYGPELYAASSFQADVSLGNDAAVPLSGRGGINTYIPLISLPLVPGFPYPTAATTAAAFRGAHLRGRGRTVYGAVRAVPPTAIPAYPGVVYQDGFYGADLYGGYAAYRYAQPATATAATAAAAAAAAYSDGYGRVYTADPYHALAPAASYGVGAVASLYRGGYSRFAPY
B3: ESRP2 (protein, UniProt Q9H6T0 1-727)
chain: MTPPPPPPPPPGPDPAADPAADPCPWPGSLVVLFGATAGALGRDLGSDETDLILLVWQVVEPRSRQVGTLHKSLVRAEAAALSTQCREASGLSADSLARAEPLDKVLQQFSQLVNGDVALLGGGPYMLCTDGQQLLRQVLHPEASRKNLVLPDMFFSFYDLRREFHMQHPSTCPARDLTVATMAQGLGLETDATEDDFGVWEVKTMVAVILHLLKEPSSQLFSKPEVIKQKYETGPCSDSTVPCPYSSKADVVDSETVVRARGLPWQSSDQDVARFFKGLNVARGGVALCLNAQGRRNGEALIRFVDSEQRDLALQRHKHHMGVRYIEVYKATGEEFVKIAGGTSLEVARFLSREDQVILRLRGLPFSAGPTDVLGFLGPECPVTGGTEGLLFVRHPDGRPTGDAFALFACEELAQAALRRHKGMLGKRYIELFRSTAAEVQQVLNRYASGPLLPTLTAPLLPIPFPLAPGTGRDCVRLRGLPYTATIEDILSFLGEAAADIRPHGVHMVLNQQGRPSGDAFIQMTSAERALAAAQRCHKKVMKERYVEVVPCSTEEMSRVLMGGTLGRSGMSPPPCKLPCLSPPTYTTFQATPTLIPTETAALYPSSALLPAARVPAAPTPVAYYPGPATQLYLNYTAYYPSPPVSPTTVGYLTTPTAALASAPTSVLSQSGALVRMQGVPYTAGMKDLLSVFQAYQLPADDYTSLMPVGDPPRTVLQAPKEWVCL
B4: RBM14 (protein, UniProt Q96PK6 1-669)
chain: MKIFVGNVDGADTTPEELAALFAPYGTVMSCAVMKQFAFVHMRENAGALRAIEALHGHELRPGRALVVEMSRPRPLNTWKIFVGNVSAACTSQELRSLFERRGRVIECDVVKDYAFVHMEKEADAKAAIAQLNGKEVKGKRINVELSTKGQKKGPGLAVQSGDKTKKPGAGDTAFPGTGGFSATFDYQQAFGNSTGGFDGQARQPTPPFFGRDRSPLRRSPPRASYVAPLTAQPATYRAQPSVSLGAAYRAQPSASLGVGYRTQPMTAQAASYRAQPSVSLGAPYRGQLASPSSQSAAASSLGPYGGAQPSASALSSYGGQAAAASSLNSYGAQGSSLASYGNQPSSYGAQAASSYGVRAAASSYNTQGAASSLGSYGAQAASYGAQSAASSLAYGAQAASYNAQPSASYNAQSAPYAAQQAASYSSQPAAYVAQPATAAAYASQPAAYAAQATTPMAGSYGAQPVVQTQLNSYGAQASMGLSGSYGAQSAAAATGSYGAAAAYGAQPSATLAAPYRTQSSASLAASYAAQQHPQAAASYRGQPGNAYDGAGQPSAAYLSMSQGAVANANSTPPPYERTRLSPPRASYDDPYKKAVAMSKRYGSDRRLAELSDYRRLSESQLSFRRSPTKSSLDYRRLPDAHSDYARYSGSYNDYLRAAQMHSGYQRRM

The assay deals with StrepII-His6-RBPMS-A ΔC20 (rat). In words: pull-down.
B1: the binding entry is on record as “no binding (tested: 2 μM)”.

For the molecule B2, the binding result is “no binding (tested: 2 μM)”.

For the molecule B3, the binding result is given as “no binding (tested: 2 μM)”.

In the case of B4, the binding entry was “binds”.
